In article PMC4881018, “Sec15 links bud site selection to polarised cell growth and exocytosis in Candida albicans” (Scientific Reports, 2016):
No constants are given. Whether binding was seen depends on the method and setting. Binding seen in cells or lysates may run through a third protein. Some entries that bind do so weakly or less than the wild type.

Legend:
Sec15-GFP (C. albicans) = test: co-IP; C. albicans cell lysates in HEPES lysis buffer (50 mM Hepes pH 7.5, 1 mM EDTA, 5% glycerol, 0.05% Tween 20, 105 mM KCl); antibody-conjugated beads (anti-GFP, anti-Myc or anti-HA), 4 °C for 2 h; western blot
Myo2-Myc (C. albicans) = Myo2-Myc (C. albicans) (UniProt Q5AKW2); test: as above

Row | binding (Sec15-GFP (C. albicans)) | binding (Myo2-Myc (C. albicans)) | Substance
1 | binds | – | Myo2-Myc (from UniProt Q5AKW2 1-1561)
2 | – | binds | Sec15-GFP (from UniProt A0A1D8PM29 1-892)
